Results as given in patent US20140378529A1, “COLLATERAL GENE INACTIVATION BIOMARKERS AND TARGETS FOR CANCER THERAPY” (Board Regents, The University of Texas System, priority 2011, published 2014).
Entries after “also recorded” stand apart in the source; their conditions may differ. For at least one compound, name, drawing or mass did not settle the structure.

Legend:
Type in all cases: cell-based, human
[1] = test system: ENO1 WT GBM cells and normal astrocytes; test: Cell growth / toxicity in ENO1 WT GBM cells and normal astrocytes; conditions: PhAH 0.625 μM to 50 μM
Experimental: (§1) For crystal violet assays, 10,000 cells were seeded in a 6-well plate for each time point. At the indicated time point, cells were fixed with 10% formalin and stained with crystal violet solution for 1 hour. Dye extraction was performed using 10% acetic acid solution and absorbance was read at 590 nm. Cell titer Glo® experiments were performed as indicated by the manufacturer. 1000 cells/well were plated in a 96 well plate for each time point and luminescence readings were taken every 24 hours. All experiments were performed in triplicate.
(§2) Structure and purity were verified by NMR. […] Given the instability of the compound, media was replaced every 5 days and fresh inhibitor added with fresh media.
(§3) Cell growth of shRNA- or PhAH-treated cell lines was assayed either through crystal violet staining or using the Promega CellTiter-Glo proliferation kit (Roche) or alternatively, in vivo, by measuring confluence with the IncuCyte (Essen BioScience). […] Dye extraction was performed using 10% acetic acid solution, and absorbance was read at 590 nm. CellTiter-Glo experiments were performed according to the manufacturer's instructions; 10^3 cells/well were plated in a 96-well plate for each time point, and luminescence readings were taken every 24 h. […] Soft agar (anchorage-independent) growth was monitored in 6-well plates seeded with 10^4 cells of the indicated genotype. […]

[2] = test system: ENO1-null cells (D423-MG, Gli56); test: Cell growth / toxicity in ENO1-null GBM cells
Experimental: as §1, §2, §3

[3] = test system: ENO1 heterozygous cells (D502-MG and U343); test: Cell growth / toxicity in ENO1 heterozygous GBM cells
Experimental: as §1, §2, §3

[4] = test system: D423-MG cells; test: Cell cycle, Annexin V/7-AAD apoptosis and phospho-AMPK analysis after PhAH
[5] = test system: ENO1 null cells D423MG; test: Metabolomics analysis of cell lysates after PhAH; conditions: D423MG lysates upon PhAH treatment

With `O=C(CP(=O)(O)O)NO` [PhAH, phosphonoacetohydroxamate] the “impact on ENO1-WT controls” value [1] was “minimal impact”, the “effect on ENO1 null cell death with inhibitors of mitochondrial metabolism” value ([2]; D423MG, with oligomycin, antimycin A or rotenone, luciferase viability assay) was “synergistic effect” and the “toxicity in ENO1-null cells” value ([2]; PhAH 0.625 μM to 50 μM, D423-MG, Gli56) was “significant toxicity; also recorded: marked toxicity; also recorded: acute toxicity”. The “sensitivity of ENO1 heterozygous cells to PhAH” value ([3]; D502-MG and U343) was “intermediate levels of sensitivity”, the “toxicity of PhAH in combination with oligomycin” value ([3]; U343, oligomycin 10 nM) was “highly toxic” and the S-phase ([4]; PhAH treatment for 48 h) was “marked decrease”. For the same molecule, the apoptosis ([4]; after PhAH treatment) was “marked increase”, the “phosphorylated AMPK (Thr172)” value ([4]; data not shown) was “strong induction” and the “glycerate and ethanolamine levels” value [5] was “increase”.
